US6794136
The exact form of at least one protein or probe is not confirmed. For some assays here: Where a protein sequence is shown, tags need not be part of it.

Sequences of proteins named here, by UniProt entry; tags and fusion partners are left off. Residues count along the entry.
UniProt P08047, 620-713: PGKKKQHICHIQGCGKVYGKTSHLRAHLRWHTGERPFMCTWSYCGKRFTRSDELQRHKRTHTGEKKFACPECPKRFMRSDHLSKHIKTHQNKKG

How the values were obtained:
[1] = tested on: T1, GL-8.3.1 (SBS design) (artificial); assay: binding assay; conditions: exemplary ZFP database entry; method not given
T1 sequence: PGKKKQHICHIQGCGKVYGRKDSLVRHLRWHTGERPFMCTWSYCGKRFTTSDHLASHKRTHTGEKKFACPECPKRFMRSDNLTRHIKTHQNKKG

SP1 = SP1 (UniProt P08047); assay: binding assay; conditions: exemplary ZFP database entry; method not given

| Sequence | Kd [1] | Kd (SP1) |
| --- | --- | --- |
| GAGTGTGTG (double strand) [GL-8.3.1 target site] | 32 nM | – |
| GGGGCGGGG (double strand) [SP1 target site] | – | 25 nM |
